Assay results published in publication PMC4813545.
Results are given in words; binding and its absence hold for the method and conditions named. Binding seen in cells or lysates may run through a third protein. Some entries that bind do so weakly or less than the wild type.

Protein sequences, listed by entry. Tags and fused reporters are not part of them.
UniProt Q8TCU6: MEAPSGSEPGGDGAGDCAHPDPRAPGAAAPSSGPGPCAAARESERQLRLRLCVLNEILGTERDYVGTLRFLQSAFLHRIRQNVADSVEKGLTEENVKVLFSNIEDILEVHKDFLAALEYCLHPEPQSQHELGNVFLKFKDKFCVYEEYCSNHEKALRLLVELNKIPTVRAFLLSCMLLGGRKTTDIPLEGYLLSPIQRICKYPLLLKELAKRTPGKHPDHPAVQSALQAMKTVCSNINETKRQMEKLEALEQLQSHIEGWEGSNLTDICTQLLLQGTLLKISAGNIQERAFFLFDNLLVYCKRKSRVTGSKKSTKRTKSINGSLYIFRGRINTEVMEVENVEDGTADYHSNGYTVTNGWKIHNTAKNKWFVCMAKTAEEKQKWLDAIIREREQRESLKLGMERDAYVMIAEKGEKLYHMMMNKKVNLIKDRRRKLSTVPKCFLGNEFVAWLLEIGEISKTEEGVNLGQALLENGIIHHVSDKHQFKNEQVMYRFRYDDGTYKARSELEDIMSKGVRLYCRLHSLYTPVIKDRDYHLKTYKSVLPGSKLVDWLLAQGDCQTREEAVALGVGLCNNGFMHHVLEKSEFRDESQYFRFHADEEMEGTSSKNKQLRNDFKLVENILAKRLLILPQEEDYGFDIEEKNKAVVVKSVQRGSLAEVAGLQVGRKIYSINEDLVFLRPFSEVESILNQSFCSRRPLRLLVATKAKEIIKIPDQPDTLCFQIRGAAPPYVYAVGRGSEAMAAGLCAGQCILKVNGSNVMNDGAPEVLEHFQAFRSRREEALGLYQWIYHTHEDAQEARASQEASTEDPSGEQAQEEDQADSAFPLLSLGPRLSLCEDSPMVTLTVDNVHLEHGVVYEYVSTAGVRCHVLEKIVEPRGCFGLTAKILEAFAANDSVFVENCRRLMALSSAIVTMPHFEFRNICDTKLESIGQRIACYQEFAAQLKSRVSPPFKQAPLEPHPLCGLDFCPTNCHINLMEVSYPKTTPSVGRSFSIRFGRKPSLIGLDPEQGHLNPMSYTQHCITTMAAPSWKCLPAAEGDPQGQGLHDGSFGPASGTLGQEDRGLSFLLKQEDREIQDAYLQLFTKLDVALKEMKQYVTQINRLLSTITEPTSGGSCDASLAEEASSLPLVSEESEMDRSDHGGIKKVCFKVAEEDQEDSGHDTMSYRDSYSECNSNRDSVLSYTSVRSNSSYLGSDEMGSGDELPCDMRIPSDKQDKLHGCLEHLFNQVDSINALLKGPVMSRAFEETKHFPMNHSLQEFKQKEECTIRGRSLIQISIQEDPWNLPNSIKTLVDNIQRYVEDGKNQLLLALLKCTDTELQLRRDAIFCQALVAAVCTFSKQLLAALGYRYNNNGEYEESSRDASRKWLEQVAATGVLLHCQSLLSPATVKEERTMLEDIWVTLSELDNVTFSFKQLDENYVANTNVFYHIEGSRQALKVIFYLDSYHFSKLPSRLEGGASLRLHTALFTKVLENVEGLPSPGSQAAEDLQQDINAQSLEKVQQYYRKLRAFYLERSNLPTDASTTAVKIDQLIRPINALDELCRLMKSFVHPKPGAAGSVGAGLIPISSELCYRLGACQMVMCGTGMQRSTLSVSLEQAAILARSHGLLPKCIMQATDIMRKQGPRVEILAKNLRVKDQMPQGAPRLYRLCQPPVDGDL

Molecular target: T1, endogenous Norbin of HEK-293 cells (human (endogenous in HEK-293)) (UniProt Q9UBB6)
T1 sequence: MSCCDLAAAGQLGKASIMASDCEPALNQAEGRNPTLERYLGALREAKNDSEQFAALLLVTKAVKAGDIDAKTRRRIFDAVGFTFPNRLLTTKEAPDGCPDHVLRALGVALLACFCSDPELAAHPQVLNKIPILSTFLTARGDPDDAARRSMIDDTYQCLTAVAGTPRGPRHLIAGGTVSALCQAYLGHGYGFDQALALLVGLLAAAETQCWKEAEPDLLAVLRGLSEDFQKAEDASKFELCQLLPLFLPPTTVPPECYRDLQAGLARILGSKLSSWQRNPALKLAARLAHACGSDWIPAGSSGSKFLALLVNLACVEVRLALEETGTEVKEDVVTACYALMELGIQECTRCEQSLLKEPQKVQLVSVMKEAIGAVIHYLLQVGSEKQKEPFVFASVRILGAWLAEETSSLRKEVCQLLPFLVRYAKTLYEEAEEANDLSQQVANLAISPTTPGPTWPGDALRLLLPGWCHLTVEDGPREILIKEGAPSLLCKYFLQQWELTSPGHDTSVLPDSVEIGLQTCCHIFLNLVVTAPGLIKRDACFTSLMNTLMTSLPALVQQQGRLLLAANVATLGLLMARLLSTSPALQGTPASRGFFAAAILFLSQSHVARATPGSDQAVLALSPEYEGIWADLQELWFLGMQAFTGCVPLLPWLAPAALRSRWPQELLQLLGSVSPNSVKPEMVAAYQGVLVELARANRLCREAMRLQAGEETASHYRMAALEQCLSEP
Assay: co-IP; HEK-293 lysate (1% Nonidet P-40 lysis buffer); immunoprecipitation with a pool of Norbin antibodies (C1, N4, N7) and protein A-Sepharose, mock with human serum IgG; Western blot with P-Rex1 6F12 and Norbin C3

binding: binds
Substance: endogenous P-Rex1 of HEK-293 cells (from UniProt Q8TCU6 1-1659)
